This passage reports binding signal results from article PMC7819943, “Rice protein-binding microarrays: a tool to detect cis-acting elements near promoter regions in rice”.

Sequences of proteins named here, by UniProt entry; tags and fusion partners are left off.
UniProt Q0JBA9, entry or part of it: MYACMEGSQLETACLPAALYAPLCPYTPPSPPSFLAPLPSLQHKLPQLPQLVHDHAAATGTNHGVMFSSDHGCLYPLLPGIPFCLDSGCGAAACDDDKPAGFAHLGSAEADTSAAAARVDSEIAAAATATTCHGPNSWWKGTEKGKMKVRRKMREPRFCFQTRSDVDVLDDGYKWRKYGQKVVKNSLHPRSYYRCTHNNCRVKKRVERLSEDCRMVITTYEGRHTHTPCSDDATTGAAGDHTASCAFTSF

Some of the results follow.

The assay concerns the target OsWRKY34 (Oryza sativa, UniProt Q0JBA9 1-250). The assay can be described thus: protein-binding microarray (RPBM); PBS, 2% BSA, 51.3 ng/ul salmon testes DNA, 50 uM zinc acetate, 200 nM TF, 25 C, 1 h; high values mean tight binding. Conditions: protein: recombinant; tags: N-terminal polyhistidine and DsRed monomer fusion (pET32a); label: CyDye5-dUTP incorporated in the synthesized complementary strand; 3' TTTTT single-stranded linker to array surface; dsDNA, one strand shown. The method in brief:
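Using Ni–NTA, transcription factors fused N-terminally to polyhistidine and DsRed were purified after expression in E. coli BL21-CodonPlus. These were incubated at 200 nM with a blocked, double-stranded custom Agilent array for 1 h at 25 °C in a buffer containing 50 µM zinc acetate, and the array was washed. The binding signal is per-feature fluorescence intensity (arbitrary units) on an Axon 4000B scanner.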
Take “GATTGCGCGGTTCTTCTGTTTCCGGCTGGCTCAGAGCCAACGGAGTCACCTAGTGCAG”: the binding signal is 9710 fluorescence intensity (a.u.). The figure for “CTCCACTCGTCTCCGCTATTTAAGCCGCCGTCTTCGCCTCCGGAGTCACCTAGTGCAG” is 9840 fluorescence intensity (a.u.); for “CCCACCACCACCTGTGCCAGTAAACCGTTGTAGCTGAGATCGGAGTCACCTAGTGCAG” it is 8120 fluorescence intensity (a.u.). For “CTTCCCGCGCGCTCTATATAAAGCCATGCGCTCCCATCGCCGGAGTCACCTAGTGCAG”, the binding signal is 8400 fluorescence intensity (a.u.). “TCCACACCCCACCACCACCGCCGTCGCCTCCACCCCGCCGCGGAGTCACCTAGTGCAG”: the binding signal is 8160 fluorescence intensity (a.u.).

Take “TTTCTTGTTTTCTTCTCATTCTTCTTTTTTTTCTTTCTTCCGGAGTCACCTAGTGCAG”: the binding signal is 14700 fluorescence intensity (a.u.). With “GATACCTCACAGTTCACAGCTGCTGCACACCAAACAGACACGGAGTCACCTAGTGCAG” the figure was 8690 fluorescence intensity (a.u.); with “TACTTTTCTCTTTTCTTCTCATGCTATCTTGTATTTGTGACGGAGTCACCTAGTGCAG”, 8900 fluorescence intensity (a.u.); with “ACATGGGTATCTATAGCTCTCTAATACATTGCCTCGTTTTCGGAGTCACCTAGTGCAG”, 8130 fluorescence intensity (a.u.). The figure for “ACTGTTCATATTGCTTTCTATCAGTAGCCTGGGATTGGGACGGAGTCACCTAGTGCAG” is 8610 fluorescence intensity (a.u.); for “GATATCTCTCTATGCTTTCCGCGGTCAGTTCTTGCTGCTACGGAGTCACCTAGTGCAG” it is 8480 fluorescence intensity (a.u.). The figure for “GGCATTGTCACTTCTTGTTCTTGGCAGCGAGCGCCATTTCCGGAGTCACCTAGTGCAG” is 11900 fluorescence intensity (a.u.); for “TACGGACTCCATATTCCTTGACTTTACCAAATTTCGGTCTCGGAGTCACCTAGTGCAG” it is 10300 fluorescence intensity (a.u.).

For the sequence “GCCTCTGTCTTGTCTCTCTACTCTCTGAAGTTCAGTTCAGCGGAGTCACCTAGTGCAG”, the binding signal is 9730 fluorescence intensity (a.u.). “TGTACACCTAATGCATCAACAATTTCTTTTGTTCTCAAGTCGGAGTCACCTAGTGCAG”: the binding signal is 9230 fluorescence intensity (a.u.).

With “TGGACATTTCACGCGCGCTCTCCGCTCCAGCCTCCAGCCACGGAGTCACCTAGTGCAG”, the binding signal is 11100 fluorescence intensity (a.u.). With “GATTTTTTTTTTCTCGTCTCCTCGTTTTTGCTTGCCTTTCCGGAGTCACCTAGTGCAG” the figure was 19200 fluorescence intensity (a.u.); with “TTGGAGGGTGCGGGATTTTTGGGCCCTGGCTCACATGTTTCGGAGTCACCTAGTGCAG”, 8450 fluorescence intensity (a.u.). The figure for “TGTCCTTTACTTTTTTTTTCTTCTTTTCTTTTTCTTTTTCCGGAGTCACCTAGTGCAG” is 12800 fluorescence intensity (a.u.); for “AGATTACCTACTGCGCCATCCACTCGCTCATCATGTTTGCCGGAGTCACCTAGTGCAG” it is 9720 fluorescence intensity (a.u.).

Regarding “GACCATCTCTACAACTAGTTGTACTATACTTAGCAATTGTCGGAGTCACCTAGTGCAG”, the binding signal was 8350 fluorescence intensity (a.u.). The figure for “TACTAGGTATCATTATACTCTATATTGTCGATTTTTTTTCCGGAGTCACCTAGTGCAG” is 10900 fluorescence intensity (a.u.); for “ACACCTTGTCACATTCCAGTCCATGCCCTCTCCCAGATCGCGGAGTCACCTAGTGCAG” it is 8400 fluorescence intensity (a.u.); for “TTTTTGTTTCTTTTTTCCTTGACCCCTGGCAACGGCTTTCCGGAGTCACCTAGTGCAG” it is 12300 fluorescence intensity (a.u.).

In the case of “CTGGGTGGGGAATTGGTTTAGTGAAGGATTAGTTGCTGATCGGAGTCACCTAGTGCAG”, the binding signal is 9770 fluorescence intensity (a.u.). The figure for “AACGTGTCGTGTCGCCCATCACCTTTGCCCGACGATATCGCGGAGTCACCTAGTGCAG” is 9610 fluorescence intensity (a.u.). Consider “CCCTGGCGGTCACTCTTCTCCATTTCCGCCGCCGTCGTCGCGGAGTCACCTAGTGCAG”, for which the binding signal was 10700 fluorescence intensity (a.u.). Take “ACCCCGTACTCGTCGTAATACTTTTTTTAATCTCTTCTCGCGGAGTCACCTAGTGCAG”: the binding signal was 10700 fluorescence intensity (a.u.). The figure for “GCAAATATATTCCATTTACATAGCTACATTGTTCCTTCTCCGGAGTCACCTAGTGCAG” is 9600 fluorescence intensity (a.u.); for “TGCAGTTTCTTTCATAATCTTCAATTCTTCTAAACAGTCTCGGAGTCACCTAGTGCAG” it is 11100 fluorescence intensity (a.u.); for “CTACGCTATCCCCGTATAAAATTTGCGTCACTCCACCATCCGGAGTCACCTAGTGCAG” it is 8230 fluorescence intensity (a.u.). Turning to “TTGCGACGTTTGACCACTCGTCTTATTTAAATTTTTTTTACGGAGTCACCTAGTGCAG”, the binding signal is 11900 fluorescence intensity (a.u.). With “ACTTTTGCAAAATCAATTTTCTAAAAAGTTTGACCAAATTCGGAGTCACCTAGTGCAG” the figure was 8370 fluorescence intensity (a.u.). The figure for “CTCGCGCACCGCATGCTAAAGCTACCACCAGGCACGTACACGGAGTCACCTAGTGCAG” is 14000 fluorescence intensity (a.u.).

“CCAATCCAAACCATTCTGCTGTTCTCTTCCCGTCGCCATGCGGAGTCACCTAGTGCAG”: the binding signal was 8500 fluorescence intensity (a.u.). With “CAGAGTGCAAGCCAATCATCGCCACCACGCTACGCTACACCGGAGTCACCTAGTGCAG” the figure was 8130 fluorescence intensity (a.u.); with “ATTAGCCTCTGTTGCTTGCTTAGCTATGGTCTCGCTCATACGGAGTCACCTAGTGCAG”, 10300 fluorescence intensity (a.u.). The figure for “TTACCTAACTTTAGTCATCCATCTTATTTAAAATTTTTTTCGGAGTCACCTAGTGCAG” is 8080 fluorescence intensity (a.u.); for “GAGGCTTCAACTGCTCCATTCTAATTGGGCCGGAGTGTGACGGAGTCACCTAGTGCAG” it is 9590 fluorescence intensity (a.u.); for “TATATATACACACACACACAAACACACACACACACACACACGGAGTCACCTAGTGCAG” it is 8720 fluorescence intensity (a.u.).

“CCCACAACACAAGTGTTCCCACTACCACTAACATACACTCCGGAGTCACCTAGTGCAG”: the binding signal was 8800 fluorescence intensity (a.u.).

“CGTTTGCTCTATGCCTCTATTTTTTTTTATTTGGAACTCTCGGAGTCACCTAGTGCAG”: the binding signal is 10700 fluorescence intensity (a.u.).
